The supplement of paper PMC10849652
The list shows a part of the results.

The chains behind the UniProt entries cited, without tags or fusion partners. Where a name states a change or a piece, a line headed by the entry shows the natural chain unless it says otherwise.
UniProt Q15311: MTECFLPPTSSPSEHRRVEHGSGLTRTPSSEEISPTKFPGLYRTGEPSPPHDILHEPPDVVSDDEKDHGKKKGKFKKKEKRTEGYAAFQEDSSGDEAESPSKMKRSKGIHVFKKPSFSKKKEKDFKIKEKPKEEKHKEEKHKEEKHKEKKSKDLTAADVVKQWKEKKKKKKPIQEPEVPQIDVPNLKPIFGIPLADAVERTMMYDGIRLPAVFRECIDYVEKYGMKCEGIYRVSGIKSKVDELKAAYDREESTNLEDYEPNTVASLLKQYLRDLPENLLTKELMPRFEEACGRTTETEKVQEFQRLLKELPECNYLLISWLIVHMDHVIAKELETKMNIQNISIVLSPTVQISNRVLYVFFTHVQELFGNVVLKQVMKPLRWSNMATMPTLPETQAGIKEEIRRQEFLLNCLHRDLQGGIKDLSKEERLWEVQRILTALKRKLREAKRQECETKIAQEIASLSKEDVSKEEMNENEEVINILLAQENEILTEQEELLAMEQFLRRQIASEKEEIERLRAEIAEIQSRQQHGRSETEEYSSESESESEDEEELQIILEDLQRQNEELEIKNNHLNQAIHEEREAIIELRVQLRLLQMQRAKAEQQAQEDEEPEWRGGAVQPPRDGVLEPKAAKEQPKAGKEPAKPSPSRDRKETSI
UniProt P20336: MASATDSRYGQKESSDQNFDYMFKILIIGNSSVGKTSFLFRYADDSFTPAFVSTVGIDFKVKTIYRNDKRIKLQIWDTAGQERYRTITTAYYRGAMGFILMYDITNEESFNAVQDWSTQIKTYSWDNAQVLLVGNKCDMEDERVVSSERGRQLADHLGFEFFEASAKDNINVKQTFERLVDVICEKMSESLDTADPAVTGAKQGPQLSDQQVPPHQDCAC
UniProt P61019: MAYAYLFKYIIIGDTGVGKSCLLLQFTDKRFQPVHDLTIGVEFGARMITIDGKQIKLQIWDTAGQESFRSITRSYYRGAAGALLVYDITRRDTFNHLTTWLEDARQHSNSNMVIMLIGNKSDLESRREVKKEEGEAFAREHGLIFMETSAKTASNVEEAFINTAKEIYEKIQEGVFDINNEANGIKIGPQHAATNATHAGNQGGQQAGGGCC
UniProt P51148: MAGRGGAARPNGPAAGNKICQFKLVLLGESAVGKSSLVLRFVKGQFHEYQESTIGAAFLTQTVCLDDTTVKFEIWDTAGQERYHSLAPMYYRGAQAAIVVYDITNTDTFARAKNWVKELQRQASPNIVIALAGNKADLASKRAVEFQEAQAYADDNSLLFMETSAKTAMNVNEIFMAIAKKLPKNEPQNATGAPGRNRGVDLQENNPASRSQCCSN
UniProt Q9UI14, whole entry, looked up: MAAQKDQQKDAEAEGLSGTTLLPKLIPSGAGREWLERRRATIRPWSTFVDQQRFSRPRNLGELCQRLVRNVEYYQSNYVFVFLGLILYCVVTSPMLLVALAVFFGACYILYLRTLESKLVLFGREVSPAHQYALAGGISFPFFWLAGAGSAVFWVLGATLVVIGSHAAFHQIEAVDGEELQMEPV
UniProt Q13637: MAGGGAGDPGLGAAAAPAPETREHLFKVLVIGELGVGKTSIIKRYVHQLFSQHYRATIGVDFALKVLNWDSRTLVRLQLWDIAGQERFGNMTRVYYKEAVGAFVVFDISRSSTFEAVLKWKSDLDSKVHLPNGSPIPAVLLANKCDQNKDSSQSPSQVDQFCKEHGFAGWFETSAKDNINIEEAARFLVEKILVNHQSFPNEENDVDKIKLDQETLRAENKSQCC
UniProt P46060: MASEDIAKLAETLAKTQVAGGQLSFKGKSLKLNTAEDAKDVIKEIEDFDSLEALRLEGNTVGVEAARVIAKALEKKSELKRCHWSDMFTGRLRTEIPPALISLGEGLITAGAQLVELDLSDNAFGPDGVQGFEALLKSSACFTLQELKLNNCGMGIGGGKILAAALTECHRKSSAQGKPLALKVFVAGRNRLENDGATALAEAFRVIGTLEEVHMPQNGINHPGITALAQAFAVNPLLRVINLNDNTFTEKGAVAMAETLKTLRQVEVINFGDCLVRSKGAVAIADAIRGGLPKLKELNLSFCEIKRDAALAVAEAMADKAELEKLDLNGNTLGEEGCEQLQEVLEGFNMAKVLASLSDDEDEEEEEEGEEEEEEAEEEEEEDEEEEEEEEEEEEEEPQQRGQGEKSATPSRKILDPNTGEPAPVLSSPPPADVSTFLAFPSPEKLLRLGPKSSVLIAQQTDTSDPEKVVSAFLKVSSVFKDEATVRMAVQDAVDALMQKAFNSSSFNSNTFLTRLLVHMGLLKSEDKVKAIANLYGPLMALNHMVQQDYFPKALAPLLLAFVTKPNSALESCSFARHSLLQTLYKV
UniProt Q96E17: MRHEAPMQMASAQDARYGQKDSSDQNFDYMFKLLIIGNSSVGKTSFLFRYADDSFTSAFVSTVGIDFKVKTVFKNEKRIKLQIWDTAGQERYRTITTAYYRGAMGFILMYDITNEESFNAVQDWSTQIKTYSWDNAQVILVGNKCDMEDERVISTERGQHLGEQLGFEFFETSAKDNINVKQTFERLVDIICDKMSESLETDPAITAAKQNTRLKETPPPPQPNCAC
UniProt Q13636: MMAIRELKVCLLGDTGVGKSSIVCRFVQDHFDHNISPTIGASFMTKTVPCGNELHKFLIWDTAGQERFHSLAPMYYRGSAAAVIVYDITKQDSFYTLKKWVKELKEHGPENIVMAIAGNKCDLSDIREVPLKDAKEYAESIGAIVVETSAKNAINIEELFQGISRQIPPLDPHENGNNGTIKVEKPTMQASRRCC
UniProt Q9H477: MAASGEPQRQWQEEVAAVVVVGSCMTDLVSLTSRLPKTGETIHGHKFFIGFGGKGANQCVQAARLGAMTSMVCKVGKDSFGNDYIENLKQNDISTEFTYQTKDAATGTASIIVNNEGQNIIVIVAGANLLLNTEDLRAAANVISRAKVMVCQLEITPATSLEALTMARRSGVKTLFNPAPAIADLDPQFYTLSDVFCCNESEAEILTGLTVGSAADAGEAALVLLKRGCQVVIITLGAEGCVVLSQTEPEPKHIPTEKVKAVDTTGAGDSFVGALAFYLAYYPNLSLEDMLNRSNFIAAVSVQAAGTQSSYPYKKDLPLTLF
UniProt Q9H6Z4: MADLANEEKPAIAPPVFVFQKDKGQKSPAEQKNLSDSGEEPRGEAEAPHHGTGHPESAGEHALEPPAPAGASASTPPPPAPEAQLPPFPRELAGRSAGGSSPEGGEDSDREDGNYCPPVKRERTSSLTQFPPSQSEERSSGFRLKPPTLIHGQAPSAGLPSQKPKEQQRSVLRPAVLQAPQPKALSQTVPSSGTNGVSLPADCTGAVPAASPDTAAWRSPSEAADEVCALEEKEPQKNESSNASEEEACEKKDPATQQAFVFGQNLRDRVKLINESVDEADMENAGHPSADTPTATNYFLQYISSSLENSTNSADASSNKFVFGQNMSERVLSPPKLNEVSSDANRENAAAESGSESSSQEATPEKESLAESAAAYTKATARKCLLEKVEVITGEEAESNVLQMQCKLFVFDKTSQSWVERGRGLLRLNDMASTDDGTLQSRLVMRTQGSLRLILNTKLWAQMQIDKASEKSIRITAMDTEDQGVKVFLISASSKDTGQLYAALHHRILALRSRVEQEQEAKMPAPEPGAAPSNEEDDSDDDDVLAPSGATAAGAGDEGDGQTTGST
UniProt Q9BYM8: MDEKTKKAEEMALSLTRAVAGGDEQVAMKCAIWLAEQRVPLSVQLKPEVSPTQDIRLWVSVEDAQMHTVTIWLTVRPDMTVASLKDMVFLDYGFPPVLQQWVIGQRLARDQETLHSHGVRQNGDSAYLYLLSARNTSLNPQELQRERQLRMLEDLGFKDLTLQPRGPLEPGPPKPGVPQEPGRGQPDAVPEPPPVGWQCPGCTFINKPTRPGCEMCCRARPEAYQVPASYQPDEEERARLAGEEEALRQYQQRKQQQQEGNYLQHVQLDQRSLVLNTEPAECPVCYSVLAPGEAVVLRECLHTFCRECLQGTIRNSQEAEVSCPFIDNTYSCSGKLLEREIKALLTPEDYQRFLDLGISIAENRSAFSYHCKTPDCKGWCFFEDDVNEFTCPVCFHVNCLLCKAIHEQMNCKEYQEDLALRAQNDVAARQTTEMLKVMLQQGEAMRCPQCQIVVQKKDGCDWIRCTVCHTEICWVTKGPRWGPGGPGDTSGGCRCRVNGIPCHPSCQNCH
UniProt O75771: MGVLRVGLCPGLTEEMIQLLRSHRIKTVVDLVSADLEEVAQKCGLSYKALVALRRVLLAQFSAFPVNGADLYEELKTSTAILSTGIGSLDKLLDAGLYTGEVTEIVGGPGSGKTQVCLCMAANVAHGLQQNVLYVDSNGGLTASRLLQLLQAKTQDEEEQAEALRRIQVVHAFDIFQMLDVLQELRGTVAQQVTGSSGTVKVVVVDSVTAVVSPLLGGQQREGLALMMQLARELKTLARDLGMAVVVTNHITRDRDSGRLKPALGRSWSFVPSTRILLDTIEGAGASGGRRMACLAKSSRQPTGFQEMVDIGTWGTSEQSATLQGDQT

What was measured:
Assay in all cases: log2 fold change, soluble protein after heating vs DMSO (PISA); higher = thermal stabilisation; K562 cells, 10 uM, 30 min; active = over 0.2 and 3.5 SD of the protein, either way, in both replicates (recomputed)
[1] = compound: COC1=CC=C(C=C1)CN2C=CC3=C2C=C(C=C3)C(=O)NO
How it was run: (§1)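 Thermal stability values are relative to control samples and come from duplicates. They are expressed as log2 fold changes. For measurement, K562 cells (2×10^6 cells/mL) received 10 μM compound for 30 min, and aliquots were heated for 3 min over 48°C-58°C, pooled, and extracted at 4°C in PBS with 0.5% NP-40. Soluble protein, the supernatant after 21,000xg for 90 min, was quantified by TMTpro 16plex LC-MS/MS with equalised channel sums.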

filanesib = compound: CON(C)C(=O)N1N=C(c2cc(F)ccc2F)S[C@@]1(CCCN)c1ccccc1 [filanesib]
How it was run: as §1

zotarolimus = compound: CO[C@H]1C[C@@H]2CC[C@@H](C)[C@@](O)(O2)C(=O)C(=O)N2CCCC[C@H]2C(=O)O[C@H]([C@H](C)C[C@@H]2CC[C@H](n3cnnn3)[C@H](OC)C2)CC(=O)[C@H](C)/C=C(\C)[C@@H](O)[C@@H](OC)C(=O)[C@H](C)C[C@H](C)/C=C/C=C/C=C/1C [zotarolimus]
How it was run: as §1

idasanutlin = compound: COc1cc(C(=O)O)ccc1NC(=O)[C@@H]1N[C@@H](CC(C)(C)C)[C@](C#N)(c2ccc(Cl)cc2F)[C@H]1c1cccc(Cl)c1F [idasanutlin]
How it was run: as §1

[2] = compound: COc1cc2nc(-c3cc(F)ccc3O)nc(N[C@@H]3CNC[C@H]3C(C)(C)O)c2cc1OC
How it was run: as §1

lapatinib = compound: CS(=O)(=O)CCNCc1ccc(-c2ccc3ncnc(Nc4ccc(OCc5cccc(F)c5)c(Cl)c4)c3c2)o1 [lapatinib]
How it was run: as §1

pictilisib = compound: CS(=O)(=O)N1CCN(Cc2cc3nc(-c4cccc5[nH]ncc45)nc(N4CCOCC4)c3s2)CC1 [pictilisib]
How it was run: as §1

alisertib = compound: COc1cc(Nc2ncc3c(n2)-c2ccc(Cl)cc2C(c2c(F)cccc2OC)=NC3)ccc1C(=O)O [alisertib]
How it was run: as §1

gefitinib = compound: COc1cc2ncnc(Nc3ccc(F)c(Cl)c3)c2cc1OCCCN1CCOCC1 [gefitinib]
How it was run: as §1

[3] = compound: COc1cccc2cc(-c3nc([C@H]4CC[C@H](C(=O)O)CC4)n4ncnc(N)c34)[nH]c12
How it was run: as §1

Measured: log2 fold change

RALBP1 (UniProt Q15311)
inactive: [1] -0.108 | filanesib 0.254 | zotarolimus -0.014 | idasanutlin 0.123 | [2] 0.217 | lapatinib 0.015 | pictilisib 0.116

RAB3A (UniProt P20336)
inactive: [1] 0.026 | filanesib 0.022 | zotarolimus -0.016 | idasanutlin 0.027 | alisertib -0.083 | [2] 0.047 | gefitinib 0.001 | [3] -0.051 | lapatinib 0.003 | pictilisib -0.018

RAB2A (UniProt P61019)
inactive: [1] -0.044 | filanesib -0.048 | zotarolimus -0.092 | idasanutlin -0.03 | alisertib -0.036 | [2] 0.004 | gefitinib -0.004 | [3] 0.059 | lapatinib 0.032 | pictilisib 0.06

RAB5C isoform 2 (UniProt P51148)
inactive: [1] -0.002 | filanesib -0.053 | zotarolimus -0.015 | idasanutlin -0.055 | alisertib -0.095 | [2] 0.015 | gefitinib 0.013 | [3] 0.038 | lapatinib -0.027 | pictilisib -0.017

RACK1 (UniProt D6RF23)
inactive: [1] -0.472 | filanesib 0.022 | zotarolimus -0.216 | idasanutlin 0.029 | alisertib 0.138 | [2] 0.142 | [3] 0.291 | lapatinib -0.36 | pictilisib 0.187

RAB3IL1 (UniProt E9PK89)
inactive: [1] 0.031 | filanesib -0.22 | zotarolimus 0.093 | idasanutlin -0.035 | [2] 0.097 | gefitinib -0.034 | lapatinib 0.063 | pictilisib -0.075

RABAC1 (UniProt Q9UI14)
inactive: [1] -0.07 | filanesib -0.105 | idasanutlin -0.043 | alisertib -0.013 | [2] -0.032 | gefitinib 0.006 | [3] 0.056 | lapatinib 0.001 | pictilisib 0.03

RAB32 (UniProt Q13637)
inactive: [1] -0.12 | filanesib -0.029 | zotarolimus -0.006 | idasanutlin -0.065 | alisertib 0.014 | [2] -0.037 | gefitinib 0.02 | [3] 0.07 | lapatinib 0.038 | pictilisib -0.011

RANGAP1 (UniProt P46060)
inactive: [1] 0.028 | filanesib -0.012 | zotarolimus 0.035 | idasanutlin -0.052 | alisertib -0.071 | [2] 0.093 | gefitinib -0.017 | [3] -0.045 | lapatinib 0 | pictilisib -0.019

RAD50, A0A494C0Y7
inactive: [1] -0.054 | filanesib 0.001 | zotarolimus -0.021 | idasanutlin -0.05 | alisertib 0.127 | [2] -0.077 | [3] 0.035 | lapatinib -0.142 | pictilisib 0.085

RAB3C (UniProt Q96E17)
inactive: [1] 0.011 | filanesib -0.07 | zotarolimus -0.038 | idasanutlin 0.014 | alisertib -0.148 | [2] 0.034 | gefitinib 0.012 | [3] 0.004 | lapatinib -0.002 | pictilisib 0.059

RAB31 (UniProt Q13636)
inactive: [1] 0 | filanesib -0.054 | zotarolimus 0.006 | idasanutlin -0.023 | alisertib -0.025 | [2] 0.031 | gefitinib 0.006 | [3] -0.005 | lapatinib 0.008 | pictilisib 0.055

RBKS (UniProt Q9H477)
inactive: idasanutlin -0.101 | alisertib 0.195 | [2] -0.051 | [3] 0.006 | lapatinib 0.009

Quoted at random: two records from the list
RAB31 (UniProt Q13636)
inactive: [1] 0 | filanesib -0.054 | zotarolimus 0.006 | idasanutlin -0.023 | alisertib -0.025 | [2] 0.031 | gefitinib 0.006 | [3] -0.005 | lapatinib 0.008 | pictilisib 0.055

RBKS (UniProt Q9H477)
inactive: idasanutlin -0.101 | alisertib 0.195 | [2] -0.051 | [3] 0.006 | lapatinib 0.009

(list continues)

RANBP3 isoform 2 (UniProt Q9H6Z4)
inactive: filanesib 0.024 | alisertib 0.002 | gefitinib 0.012 | [3] 0.037 | pictilisib 0.068

RBCK1 (UniProt Q9BYM8)
inactive: zotarolimus 0.221 | idasanutlin -0.038 | [2] 0.142 | lapatinib -0.098

RAD51D (UniProt O75771)
inactive: [1] 0.001 | zotarolimus -0.313 | idasanutlin -0.047 | alisertib -0.069 | [2] 0.031 | gefitinib 0.067 | [3] 0.03 | lapatinib 0.048 | pictilisib 0.423

RAB28 (UniProt P51157)
inactive: [1] -0.169 | zotarolimus 0.019 | idasanutlin -0.17 | pictilisib 0.113
